US7087768B2, “Fumagillol derivatives and preparing method thereof” (Equispharm Co., Ltd., priority 2001, dated 2006)
Some of these results come from one statement about several compounds together.

System: HUVECs (human umbilical vein endothelial cells)
Assay: Inhibitory effect of fumagillol derivative on HUVEC cell growth (colorimetry)
Type: cell-based
Conditions: relative to TNP-470
Description: Using the HUVECs (human umbilical vein endothelial), the effect of the fumagillol derivative of the present invention on cell growth was evaluated.
The HUVECs were added to M199 medium supplemented with 20% FBS (fetal bovine serum), 100 U/ml penicillin, 100 μg/ml streptomycin, 1.5 g/L sodium bicarbonate, 0.1 mg/ml endothelial cell growth supplement (Sigma) and 0.1 mg/ml heparin (Sigma), after which the cells were incubated in an incubator at 37° C. under 5% CO2. Cells were subcultured a maximum of 8 times before being discarded.
In order to evaluate inhibitory activity of the fumagillin derivative on growth of HUVECs, the inventive compound was dissolved in DMSO and its concentration was adjusted from 10 mM to 1 mM. Cells were aliquotted to 96 well plates at a density of 2×10^3 cells per well and incubated for about 12–24 hours to be properly attached to the plate. Thereafter, the medium was replaced with new medium. The cells were treated with the compound obtained from each of the above examples at various concentration ranges of from 10 μM to […], and cultured for 2–3 days, followed by removing 100 μl of the medium from each well.
Colorimetry was performed to determine the extent of cell growth. […] Using a 96-well plate reader, absorption was measured at 490 nm. […]

Structure (SMILES) | inhibitory effect on HUVEC, times greater than TNP-470
CO[C@@H]1[C@H](OC(=O)CNC2CCC2)CC[C@]2(CO2)[C@H]1[C@@]1(C)OC1CC=C(C)C (some centres unmarked) [Ex. 64, 6-O-(cyclobutylamino)acetyl fumagillol] | 100–1000 times
CO[C@@H]1[C@H](OC(=O)CNC2CC2)CC[C@]2(CO2)[C@H]1[C@@]1(C)OC1CC=C(C)C (some centres unmarked) [Ex. 63, 6-O-(cyclopropylamino)acetyl fumagillol] | 100–1000 times
